In US9926355 one finds binding data, which are given here for one substance.

The chains behind the UniProt entries cited, without tags or fusion partners. Where a name states a change or a piece, a line headed by the entry shows the natural chain unless it says otherwise.
UniProt P11362: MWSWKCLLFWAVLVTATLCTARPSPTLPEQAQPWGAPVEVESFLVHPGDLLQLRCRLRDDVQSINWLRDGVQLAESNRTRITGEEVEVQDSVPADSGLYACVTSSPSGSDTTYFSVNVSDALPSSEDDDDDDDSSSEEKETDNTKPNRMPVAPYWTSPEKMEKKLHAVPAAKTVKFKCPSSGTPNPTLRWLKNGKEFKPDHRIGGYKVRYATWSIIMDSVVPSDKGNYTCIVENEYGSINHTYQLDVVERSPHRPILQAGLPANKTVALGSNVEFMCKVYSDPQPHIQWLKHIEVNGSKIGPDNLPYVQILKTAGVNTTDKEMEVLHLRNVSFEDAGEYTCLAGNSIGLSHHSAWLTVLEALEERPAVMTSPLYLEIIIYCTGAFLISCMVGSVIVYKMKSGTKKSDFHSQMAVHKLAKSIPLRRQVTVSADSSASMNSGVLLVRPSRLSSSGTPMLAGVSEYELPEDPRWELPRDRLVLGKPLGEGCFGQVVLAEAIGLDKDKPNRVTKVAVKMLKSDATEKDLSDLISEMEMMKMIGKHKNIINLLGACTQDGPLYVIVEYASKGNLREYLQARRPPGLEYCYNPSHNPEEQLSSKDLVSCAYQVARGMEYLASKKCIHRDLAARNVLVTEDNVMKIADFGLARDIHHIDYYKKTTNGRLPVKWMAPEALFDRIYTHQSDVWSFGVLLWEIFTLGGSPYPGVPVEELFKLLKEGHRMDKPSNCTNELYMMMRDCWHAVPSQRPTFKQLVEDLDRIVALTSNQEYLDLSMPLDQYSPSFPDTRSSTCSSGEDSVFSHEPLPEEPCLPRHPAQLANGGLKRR
UniProt Q9NSA1: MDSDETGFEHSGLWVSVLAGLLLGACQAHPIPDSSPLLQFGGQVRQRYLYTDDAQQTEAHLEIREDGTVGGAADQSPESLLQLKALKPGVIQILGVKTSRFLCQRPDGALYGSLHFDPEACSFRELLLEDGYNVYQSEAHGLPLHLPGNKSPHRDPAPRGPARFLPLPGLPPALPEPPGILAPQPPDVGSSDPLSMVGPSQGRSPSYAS

In this assay the target is binary complex of FGFR1c ligand-binding domain with βKlotho ectodomain (murine; human) (UniProt P11362). Briefly: SPR competition; FGF21 in solution against immobilized FGF21.

No constants are given. Whether binding was seen depends on the method and setting. Some binding calls cover weakened binding; strength is not graded here.

In the case of “N-terminally hexahistidine-tagged, mature form of human FGF21 (H29 to S209) (from UniProt Q9NSA1 29-209) (ligand)”, the binding entry is on record as “binds”.
